No constants are given. Whether binding was seen depends on the method and setting. In cells and extracts the contact can be indirect. Some entries that bind do so weakly or less than the wild type.
Legend:
[1] = molecular target: 3×HA-xlMC3R.L (Xenopus laevis melanocortin-3 receptor, L subgenome copy) (Xenopus laevis); assay: co-IP; HEK293T cells co-transfected with 3×HA-xlMC3Rs and 2×Flag-xlMRAPs; lysate incubated with HA-tag rabbit mAb overnight at 4°C, protein A/G agarose beads; blot with anti-FLAG and anti-HA
[2] = molecular target: xlMC3R.L with VF1 (part of Venus) at the C-terminus (Xenopus laevis); assay: split reporter; bimolecular fluorescence complementation of split Venus (VF1 on xlMC3Rs, VF2 on xlMRAPs) in transfected HEK293T cells, fixed 24 h after transfection, confocal microscopy

Protein sequences, listed by entry. Tags and fused reporters are not part of them. Lines headed by an entry give the natural chain unless they say otherwise; changes in a name come on top. Chains listed by the source or under a name are the forms on record and can include a tag or linker.
xlMRAP2.L with N-terminal VF2 (part of Venus) and C-terminal 2×Flag (A0A1L8G9N8, form named): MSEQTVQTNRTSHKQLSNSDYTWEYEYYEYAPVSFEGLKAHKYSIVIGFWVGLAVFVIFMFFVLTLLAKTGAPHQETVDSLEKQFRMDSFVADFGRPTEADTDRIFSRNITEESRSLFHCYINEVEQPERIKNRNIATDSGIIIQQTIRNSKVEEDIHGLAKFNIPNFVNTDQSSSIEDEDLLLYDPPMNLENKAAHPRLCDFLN
xlMRAP2.S with N-terminal VF2 (part of Venus) and C-terminal 2×Flag (A0A1L8G336, form named): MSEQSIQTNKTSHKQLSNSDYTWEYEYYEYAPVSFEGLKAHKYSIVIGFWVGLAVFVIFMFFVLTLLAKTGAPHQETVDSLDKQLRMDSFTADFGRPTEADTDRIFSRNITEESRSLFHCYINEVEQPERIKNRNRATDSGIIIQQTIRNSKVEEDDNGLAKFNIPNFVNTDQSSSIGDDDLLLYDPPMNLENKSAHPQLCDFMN

Row | Substance | binding [1] | binding [2]
1 | 2×Flag-xlMRAP2.L (Xenopus laevis melanocortin receptor accessory protein 2, L subgenome copy) (from UniProt A0A1L8G9N8 1-205) | binds | –
2 | 2×Flag-xlMRAP2.S (Xenopus laevis melanocortin receptor accessory protein 2, S subgenome copy) (from UniProt A0A1L8G336 1-205) | binds | –
3 | xlMRAP2.S with N-terminal VF2 (part of Venus) and C-terminal 2×Flag (from UniProt A0A1L8G336 1-205) | – | binds
4 | xlMRAP2.L with N-terminal VF2 (part of Venus) and C-terminal 2×Flag (from UniProt A0A1L8G9N8 1-205) | – | binds
